From publication PMC6737238

Columns and labels:
[1] = target: T1, Tar (TK0271 protein) (Thermococcus kodakarensis KOD1) (UniProt Q5JFW7); test: EMSA; settings: EMSA: 0.4 nM biotinylated probe, 10 mM Tris-HCl pH 7.5, 1 mM DTT, 10 mM MgCl2, 400 mM KCl, 0.05% NP-40, 70C 10 min, 5% PAGE, 0.5x TBE, recombinant protein
T1 sequence (looked up, limits assumed): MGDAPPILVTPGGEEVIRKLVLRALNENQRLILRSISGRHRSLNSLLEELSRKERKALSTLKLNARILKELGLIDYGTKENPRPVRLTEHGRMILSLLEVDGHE

[2] = target: T2, TkTrpY (TK1227 protein) (Thermococcus kodakarensis KOD1) (UniProt Q5JGI5); test: EMSA; settings: EMSA: 0.4 nM biotinylated probe, 10 mM Tris-HCl pH 7.5, 1 mM DTT, 10 mM MgCl2, 400 mM KCl, 0.05% NP-40, 70C 10 min, 5% PAGE, 0.5x TBE, recombinant protein, residues 1-166, label: 5'-biotin on reverse primer, probe letters rebuilt from the primers and the genome
T2 sequence (looked up): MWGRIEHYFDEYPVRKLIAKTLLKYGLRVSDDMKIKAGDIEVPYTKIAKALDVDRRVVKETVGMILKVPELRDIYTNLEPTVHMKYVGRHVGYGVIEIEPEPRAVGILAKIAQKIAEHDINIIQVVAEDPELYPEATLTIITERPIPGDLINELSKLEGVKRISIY

[3] = dramatic decrease in affinity, label: 5'-biotin on strand 2 (primer S197, filled in)

GGTCTTTTTAGCTACTCCCTTGGACACCTCAGCATGTCCAAAGCCTTATATCCCAACTCCCC (double strand) [sTK0252 (wild type)]
binding result ([1]; label: 5'-biotin on strand 2 (primer S197, filled in)): binds

GGTCTTTTTAGCTACTCCCTCTTCTCCCTCAGCAGAGAAGAAGCCTTATATCCCAACTCCCC (double strand) [M2]
binding result [1, 3]: binds more weakly

GACTTCGGCTTTCTGATGGTCGGAAGGGACGTGGAAAATGCGAACGAAGCGATAAAAATGTTTTTGGAGGAGGTTAAACGAGGGCCTTAACGCCCTCTCGGTCTTTTTAGCTACTCCCTTGGACACCTCAGCATGTCCAAAGCCTTATATCCCAACTCCCCCTTTTGACACCGGTGAGTTCAAATGGGTGATGGTTTTTGGATTAAGC (double strand) [trp promoter (TK0252)]
binding result ([1]; 5 mM erythrose 4-phosphate, majority of complex dissociated, label: 5'-biotin on reverse primer, probe letters rebuilt from the primers and the genome): binds more weakly | binding result ([1]; 10 mM erythrose 4-phosphate, 20 nM protein, label: 5'-biotin on reverse primer, probe letters rebuilt from the primers and the genome): binds more weakly | binding result ([2]; 10 mM Trp, binding not affected): binds more weakly | binding result ([2]; no specific binding, faint band at 50 nM protein): binds more weakly

GGTCTTTTTAGCTACTCCCTCGTACCCCTCAGCAGGTACGAAGCCTTATATCCCAACTCCCC (double strand) [M1]
binding result [1, 3]: binds more weakly

The exact form of at least one protein or probe is not confirmed. A weaker result is weaker than the reference pair of the same experiment. Where a protein sequence is shown, tags need not be part of it. For some of these results: At least one verdict was read from the data and is not stated in words by the source.
